Measured values reported in PMC3979765.
These are yes or no findings as the source states them, for the method shown. Where a sequence is shown, tags or fusion partners need not be part of it.

The chains behind the UniProt entries cited, without tags or fusion partners.
UniProt Q9NYA1: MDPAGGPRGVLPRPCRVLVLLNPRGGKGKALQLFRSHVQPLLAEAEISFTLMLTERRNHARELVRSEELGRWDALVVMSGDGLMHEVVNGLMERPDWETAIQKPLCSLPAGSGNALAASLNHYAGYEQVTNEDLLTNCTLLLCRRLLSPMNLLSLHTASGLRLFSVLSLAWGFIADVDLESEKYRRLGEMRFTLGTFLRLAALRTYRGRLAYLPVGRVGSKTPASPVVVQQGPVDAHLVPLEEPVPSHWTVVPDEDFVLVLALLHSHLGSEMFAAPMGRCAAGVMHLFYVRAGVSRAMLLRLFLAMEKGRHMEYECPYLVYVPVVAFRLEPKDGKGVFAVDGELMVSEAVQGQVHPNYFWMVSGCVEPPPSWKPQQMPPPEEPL

Biological target: Recombinant purified His-SphK1 (UniProt Q9NYA1)
Assay: pull-down; purified Memo or myc-Memo (2 μg) incubated with or without purified His-SphK1 (2 μg) for 16 h at 4°C in 50 mM Tris pH 7.5, 100 mM NaCl, 1 mM EDTA, 0.1% NP-40, 10% glycerol, 20 mM imidazole; Ni-NTA agarose 90 min at 4°C; western blot; both purified

B1: Recombinant purified Memo (protein, UniProt Q9Y316 1-297)
chain: MSNRVVCREASHAGSWYTASGPQLNAQLEGWLSQVQSTKRPARAIIAPHAGYTYCGSCAAHAYKQVDPSITRRIFILGPSHHVPLSRCALSSVDIYRTPLYDLRIDQKIYGELWKTGMFERMSLQTDEDEHSIEMHLPYTAKAMESHKDEFTIIPVLVGALSESKEQEFGKLFSKYLADPSNLFVVSSDFCHWGQRFRYSYYDESQGEIYRSIEHLDKMGMSIIEQLDPVSFSNYLKKYHNTICGRHPIGVLLNAITELQKNGMNMSFSFLNYAQSSQCRNWQDSSVSYAAGALTVH
**Q.** With B1 as the binder, how does the binding read?
**A.** The binding was “no binding (tested: 2 μg of each protein)”.

B2: Recombinant purified myc-Memo (protein, UniProt Q9Y316 1-297)
chain: B1 chain
**Q.** With B2 as the binder, how does the binding read?
**A.** Its binding is “no binding (tested: 2 μg of each protein)”.
